# Measurements taken from the supplement of paper PMC3334620.
# In all, about 33,000 sequences were measured (“E-score (-0.5 to 0.5)”: median about -0.0059, highest 2% from about 0.26 on). This is one part of the list.
# Biological target: T1, Cin5 (UniProt P40917)
# T1 sequence: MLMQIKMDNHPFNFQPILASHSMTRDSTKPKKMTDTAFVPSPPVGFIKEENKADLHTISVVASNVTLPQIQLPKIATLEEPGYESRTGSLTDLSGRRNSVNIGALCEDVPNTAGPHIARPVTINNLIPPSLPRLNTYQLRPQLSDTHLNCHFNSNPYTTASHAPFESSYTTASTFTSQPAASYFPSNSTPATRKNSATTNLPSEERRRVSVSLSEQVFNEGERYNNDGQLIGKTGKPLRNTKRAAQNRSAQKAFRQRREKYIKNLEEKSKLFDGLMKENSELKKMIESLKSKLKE
# Assay: PBM E-score (8-mer binding enrichment) (E-score (-0.5 to 0.5)); higher = stronger / more preferred TF binding
# Settings: protein concentration: 100 nM; construct: GST-full length
# Procedure, shortened: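 Full-length yeast transcription factors or their DNA-binding domains, GST-tagged and expressed with PURExpress, were applied at about 100-200 nM to universal all-10-mer Agilent arrays. These arrays had been made double-stranded by primer extension on fresh or once-stripped slides. Detection used fluorescent anti-GST, normalisation used masliner, and E-scores for ungapped eight-base words pooled with reverse complements came from the Universal PBM Analysis Suite.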
row,Sequence,PBM E-score
1,CCCGTTCA,-0.0227
2,CTATATAC,0.313
3,CCAACAGG,-0.247
4,AAAGGGGG,-0.389
5,TTGACAAA,0.151
6,GTTGCTAA,0.249
7,CGATCTAC,-0.0495
8,CCCTGTGA,-0.192
9,CGAACAGC,-0.168
10,CCTGTTAC,0.0877
11,CTGTGAAG,-0.109
12,GGAAGTTA,0.0956
13,ATTTCCCA,0.165
14,ATAACACG,0.127
15,AGGCATCC,-0.202
16,CCCCCCGG,-0.476
17,GGTTCATA,0.0818
18,AATCAAAC,0.326
19,AGAGATCC,0.0491
20,CCACTTAC,0.303
21,CTAGCCGC,0.0223
22,GGCGCGCC,0.117
23,ACTACAAT,0.218
24,ATTGCAAG,0.0775
25,AGATCACA,-0.0856

row,Sequence,PBM E-score
1,AGGCAGAA,0.0944
2,CATGTGGC,0.0278
3,CCCGAAAG,0.0417
4,AAGGCTAT,-0.0601
5,CCCCTCCA,-0.0611
6,AGATTCCC,0.0626
7,CTATAACA,-0.122
8,ACGATGGG,0.0354
9,CCTGGGGC,-0.319
10,AACTGCTC,0.0453
11,CGCTCTCC,-0.266
12,ACATGAAT,0.0776
13,CATCTGCC,-0.0681
14,TAATCAGA,0.231
15,CATTTCAC,0.0596
16,CTCCGCAC,-0.199
17,GCCCTCAC,-0.14
18,CCAGTCCG,-0.296
19,CCATTATC,0.0699
20,AACAGATC,0.13
21,ACGCGCCC,-0.0725
22,GTTGGCTA,0.0116
23,GGGTTACC,-0.182
24,GCTGCTAA,-0.0425
25,AATACAGG,0.143

row,Sequence,PBM E-score
1,CGTGCAAC,-0.0515
2,GTCTTAGA,-0.201
3,AGGCTTAT,0.152
4,ATAACGGA,0.227
5,ATAGCCTA,-0.0542
6,ACAACCCC,-0.0158
7,GATGGTAC,0.0499
8,CAATTGTA,0.0279
9,ATCAGATC,0.0499
10,CGTGGATA,0.0629
11,AACGAGTA,0.119
12,ACGTTCAG,-0.226
13,GCGGTACA,-0.0496
14,ATCCAGTC,0.068
15,AAGCGGTC,0.028
16,AGCACACT,0.108
17,AGACTACC,0.028
18,GCATAGCC,-0.283
19,ATCAAACC,0.212
20,CTTCGCTC,0.0176
21,GAAATCCA,0.147
22,CTGCCGTC,-0.172
23,CAGCTGGG,-0.0726
24,GGTTAATA,0.0958
25,GGGTGAAC,-0.11

row,Sequence,PBM E-score
1,CTGTTCGA,-0.276
2,CTAACGAA,-0.0791
3,ATTCCTCC,0.00636
4,AAGTGATT,0.156
5,CTGTTGCC,-0.133
6,GACTTTTA,-0.117
7,ATAGACCG,-0.117
8,GCAAAAGA,-0.0782
9,ACGATTAG,0.158
10,GTGTTTAA,0.0477
11,ATAGCCCG,-0.198
12,AGGGACTG,-0.221
13,ATACGCGG,0.0193
14,GCGTACTA,-0.0261
15,AAGACGAT,0.055
16,ATGAGCAA,0.0945
17,AGCGCGCC,-0.0229
18,AGGACAGC,-0.103
19,GACACCCC,-0.263
20,CACTAACC,0.00512
21,ACAAGTGA,-0.0377
22,CGAAGTGA,0.0593
23,GCACGAGC,-0.116
24,ACGTTCGG,-0.16
25,AGAAACAT,0.135

row,Sequence,PBM E-score
1,GCATAGAC,-0.205
2,AGGGACCA,-0.109
3,GCTCCGCC,-0.123
4,ACTGTTAG,-0.14
5,AGTCTACC,-0.13
6,AGAAACTC,-0.0376
7,CCGGTCAC,-0.152
8,CTCAACTC,0.0465
9,AGCGCACT,-0.0188
10,ACCATCGG,-0.108
11,AACGATCT,-0.0923
12,GCTACTCA,0.105
13,ATACAGGA,0.0489
14,ACCGCGTA,0.0207
15,CCAACGGA,-0.112
16,AAATCATG,0.16
17,CCGTAAAG,-0.0264
18,GGCGCCCA,-0.0459
19,CTGGTGGA,-0.16
20,GGAGCCCC,-0.299
21,CAAAGAGC,-0.134
22,CTTTTCAA,-0.0158
23,ATTCAGCA,0.0523
24,CGTAGACA,-0.149
25,TGCCCCAA,0.124

row,Sequence,PBM E-score
1,GAGGTTAC,-0.0187
2,CGCCGAGC,-0.119
3,CCTTGTGC,-0.301
4,GAAAATAC,0.0752
5,CAGTATAC,0.0487
6,AACGAATG,0.206
7,CAAATACG,0.0308
8,CGGGGTTC,-0.0898
9,GGGGGAAA,-0.0854
10,CTAAATGC,0.00209
11,AAAGGGAA,-0.112
12,CAACAGAA,-0.0337
13,ATTAGAAG,0.0844
14,AGGTTGCA,0.11
15,ATCCGAGG,-0.165
16,AAATCGAA,0.11
17,GATGGTTA,0.0172
18,CAGACAAG,-0.0421
19,CCAGGAGG,-0.262
20,CAGGCCAG,-0.14
21,ATGCGAAG,-0.0237
22,CCAAAATA,0.113
23,AATCGATG,0.182
24,AAAGGTAC,-0.0367
25,TCCCCCGA,-0.343

row,Sequence,PBM E-score
1,ATACTGAG,0.214
2,CATGTCAC,0.15
3,GCAAGTCC,-0.173
4,AACATGCC,-0.0633
5,CCGCTACA,0.00468
6,ATTACCAA,0.27
7,AAGGGCCG,-0.285
8,GGTACCCA,-0.31
9,CTCGGGCA,-0.0222
10,CGAGCCGA,-0.0217
11,ATGACTCC,-0.00817
12,CTTAGTGA,0.0718
13,AGACCATA,0.137
14,AAAGGGAT,-0.0211
15,GCTTACAA,0.248
16,AGCCTCGA,-0.0892
17,CTCTCCTC,-0.288
18,ACCCGCGG,0.236
19,CGTTCTAC,-0.0798
20,AGAAAGCC,-0.07
21,TACCCGCA,0.16
22,CAATGGAG,-0.0772

# An excerpt of these results, with bars between the fields:
row | Sequence | PBM E-score
6 | ATTACCAA | 0.27
7 | AAGGGCCG | -0.285
8 | GGTACCCA | -0.31

# Another view of part of the listing above:
row	Sequence	PBM E-score
1	ATACTGAG	0.214
2	CATGTCAC	0.15
3	GCAAGTCC	-0.173
